In US20210032655A1:
No constants are given. Whether binding was seen depends on the method and setting. Some binding calls cover weakened binding; strength is not graded here.

Experiments:
[1] = target: minocycline dAb-Fc; test: phage-peptide colony screening on bead-immobilised dAb-Fc, with and without 1 µM minocycline
[2] = target: minocycline dAb-Fc; test: peptide binding to minocycline dAb versus control antibody, FIG. 4
[3] = target: minocycline dAb-Fc; test: statement in Example 2 about the dAb/peptide platform; method not given

Measured: binding

ACPHWAQAFC [peptide … (SEQ ID NO: 35)]
binds: all assays above

ACPPWAYSFC [peptide … (SEQ ID NO: 37)]
binds: all assays above

ACPQWAMMFC [peptide … (SEQ ID NO: 36)]
binds: all assays above

ACPGWARAFC [peptide … (SEQ ID NO: 34)]
binds: all assays above
